Test results as given in PubChem BioAssay AID1347423 (Functional Genomics Laboratory (NCATS/FGL), 2020).
Hit rate of the full screen: of about 52,000 sequences, about 210 (0.4%) were called active.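 Rule for the calls: active = gene whose silencing raises cell survival under the drug, median off-target-corrected z-score across its silencing RNAs 2 or more; inactive = the rest.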 Some of the results follow.

Assay: Resistance to Poly (ADP-Ribose) Polymerase inhibitor: Gene Identification via Genome-wide siRNA Screen
Conditions: mouse BRCA2 R2336H ES cells, olaparib, CellTiter-Glo viability; stronger effect = higher value
Method in brief: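 Genome-wide siRNA screen (3 siRNAs/gene, 20 nM) in mouse ES cells carrying hypomorphic BRCA2 R2336H; olaparib 500 nM added 48 h post-transfection, CellTiter-Glo viability 72 h later. Normalized to plate-median negative control; MAD z-scores, gene median, seed-adjusted.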

Sequence | z-score
GGAAUAUGGAAGGAAGAGUTT against E130311K13 | inactive: -1.6
CCACAUAUUUAUCUCCCUGTT against Mrpl33 | inactive: -0.129
GGCAAAGAUCAAGACUGUGTT against Rbbp1 | inactive: -1.09
CCGGCACUAUGAGAAGAAGTT against Lims2 | inactive: -1.88
GCACGCUAAGUAACGAAAGTT against 1300013B24Rik | inactive: -1.46
GGAUAUCUGAGACAGGUUUTT against Arf4 | inactive: -1.39
GGGCAUUGAUCACAGUGUATT against Bcl3 | inactive: 1.33
GGAAACAAGGUCUCUGUUUTT against Eva1 | inactive: 0.406
CGACCAUUCCUUUGAGUUATT against Spg3a | inactive: -0.134
GGAGAACUUCUGGAGCACCTT against Clecsf10 | inactive: -0.282
GAGAACAAGCCUAAGCCCATT against V1rb5 | inactive: -0.864
CAACAUCUAAACCCAAGAGTT against 1700010D01Rik | inactive: -2.45
GGUGCUUAUACUUCUUUGUTT against Sgcz | inactive: -0.857
CCGACUCCAGUUGAAUGUUTT against Tgif2 | inactive: -1.25
CGUGCAACAAGACAUCUAATT against Wnt4 | inactive: 0.436
GGUGAUGCUAAAUUCUGAUTT against 2610205H19Rik | inactive: 0.915
GGAGAUCCUAGAAACCAUCTT against Pex6 | inactive: -0.636
GGUCUGACCAUGAUCAUAATT against D230037D09Rik | inactive: -1.7
GGCACGUAUGUGGUAGACATT against Zdhhc7 | inactive: 0.514
GGCUGCAUGAUUUAUAGAGTT against Il18 | inactive: -0.198
GGCGUGUGUAAUAAUUUCCTT against D14Ertd500e | inactive: -1.21
GGACUAGCAUUCAUGUUCCTT against Zfy2 | inactive: 0.374
GCUAAGCUGGAUCCAUAAUTT against A430060F13Rik | inactive: 0.339
GGACCAAGUGGAAGAAGCATT against Nkx1-2 | inactive: -0.904
GGUACUAGAUGACAAAAACTT against Gtl3 | inactive: -0.801
GCCUGCAUUAGGAACCAAATT against Galnt9 | inactive: -1.2

As entered above:
GGAGAUCCUAGAAACCAUCTT against Pex6 | z-score: inactive: -0.636
GGAUAUCUGAGACAGGUUUTT against Arf4 | z-score: inactive: -1.39

Part of the list above, as a markdown table.

| Sequence | z-score |
| --- | --- |
| CCACAUAUUUAUCUCCCUGTT against Mrpl33 | inactive: -0.129 |
| CGACCAUUCCUUUGAGUUATT against Spg3a | inactive: -0.134 |
| CGUGCAACAAGACAUCUAATT against Wnt4 | inactive: 0.436 |

Carrying on.

Sequence | z-score
GCCAACUAGAAAACAACUGTT against 2700099C19Rik | inactive: -0.308
CGGAUCGGUGCGAGAAUAATT against D930035B09Rik | inactive: -0.837
GCCUUCAAAUGAAGGAAGGTT against Olfr699 | inactive: -0.519
GGCGUAACCUAACAUGGGATT against Clec2 | inactive: -1.03
CGAUCUGAGUUUUAUCUCUTT against Gm123 | inactive: 0.476
GCUCAGUAUACUUCAGCAUTT against Og9x | inactive: 1.01
GCAUGUGUCAAGAUGUCUGTT against Tec | inactive: -0.706
CGAACUGUCAUACAGAUUCTT against Gadd45b | inactive: -0.0832
GGAAUCGUUCCGUAGUGACTT against Olfr959 | inactive: -0.0376
GGGUUCCUAUGGCAAUGGGTT against Adprhl2 | inactive: 0.0145
GGAUUUGUUGACAAGAACATT against Myo1b | inactive: -0.0382
GGGCCUCUAUCAACACUGUTT against Tomm40l | inactive: 1.09
GGCCUACGAACAGGUCAUGTT against Foxa2 | inactive: -1.07
GGGAUCAUUGCUGUCCUCUTT against Adora2b | inactive: 1.9
GGGCUUUUACCUGAAUCACTT against Egfl5 | inactive: 0.684
GGAAAUCUUUGAGAACUAUTT against Tpr | inactive: -2.51
GGAUCAGUUCAACGGACAGTT against Oas1d | inactive: -0.486
GGUGAGAAGGUGCUAGUGUTT against Ugt1a5 | inactive: 0.72
CCACAUGCCAAAAUAAUACTT against Oxr1 | inactive: 0.164
CCAGUGGUAUGUGUGCAACTT against 0610012D09Rik | inactive: 3.12
AGAUUUUGGGAAUAUAGUGTT against Klra16 | inactive: 0.187
GGCUGAACUCAAAAAGACGTT against Hand1 | inactive: 2.07
CAGUCGAAUUUCAGUCACATT against Olfr417 | inactive: -0.762
CGAACUGGCUGAGAUCAUCTT against Mrps17 | inactive: -0.975
GGAACUUUUCCUGGCCUCGTT against 9530080O11Rik | inactive: -0.867
GGAAACUCCGUCCCAAUUGTT against Rnf137 | inactive: 1.96

Sequence | z-score
GGAAGUGAGAGUUAAGGCCTT against Rhov | inactive: 0.392
CCCUUUUUUUUCUAGCACCTT against 9430022F06Rik | inactive: 2.36
GCCAGAUCAUUGUAUCAAUTT against A730024F05Rik | inactive: 0.767
GGAUGAUCCAGACUAACUUTT against Abcb6 | inactive: 2.85
GGAGGAGAUGAUGAAUUUUTT against Etf1 | inactive: -2.49
GGGAAGAAGAUGGAAUUUATT against Smoc1 | inactive: 0.217
GCAACCUGUUAACAGAAGUTT against 2410015B03Rik | inactive: 0.966
GCCCUGAGAAAAAGCUCAUTT against V1rh18 | inactive: 0.756
GGCACACUUAUCAAAUAAATT against Rrm1 | inactive: -2.35
GGCCUAAAUAAGGAUGUGATT against 1110015E22Rik | inactive: -0.445
UAGAAUCCAUGCAAGGGCGTT against 4931440B09Rik | inactive: 1.06
GCACCAGUCGAAUCCUCAATT against AI428855 | inactive: -1.34
GGUAGCUAAAGAAAACCAGTT against Rangnrf | inactive: -1.18
GCUAUCACAAUAAAGGAUATT against Syt14 | inactive: -0.278
CGUGCUUCGAUUGUAGUUCTT against C030039L03Rik | inactive: -1.02
GGCUAUUUGUAUGCUGGAATT against C030002J06Rik | inactive: 1.27
GCACAUCACAAGAAUUACUTT against Lhfp | inactive: -1.62
CCAAGUGACUACCAUGUCATT against Tesp2 | inactive: -0.0666
GGAAUUUAGAAGGAUUAGGTT against Ptp4a1 | inactive: 0.282
GGAGCAGAUUCUUCAAUAUTT against Atp11a | inactive: -0.714
GGAAGCGUAUUUUGGUGAUTT against Cox10 | inactive: 1.17
CCUGUAUAGAGGUGGGAAGTT against Tk2 | inactive: 0.493
GGCUAAACCAACCUCGUGCTT against D10Ertd214e | inactive: 1.15
GCCAAGGGUUUGAAAGCCATT against Tpm1 | inactive: -0.934
CCUGAGGACCACUACUUUUTT against Arp3b | inactive: -2.39
GGGCAGCUGGAUAGCUAAATT against E230026N22Rik | inactive: 0.563

Sequence | z-score
GCUAGAGAAGCUAGAAAAGTT against 2700094L05Rik | inactive: -0.952
GGCCAAAUGAAGUCAAAAGTT against Srrp | inactive: 2.17
CGAGGGUCUGAAAAAUUACTT against AU044919 | inactive: 1.54
GGCGUGUAUCUAUACACACTT against Glp1r | inactive: -0.0599
GGAUUAGAGAAAUAGGGCUTT against 9030421J09Rik | inactive: -0.273
GGACAGAGCAGACAUUCAUTT against B130003F20Rik | inactive: -0.977
GCUGUCUAUUUCCUAUACUTT against Bcl7a | inactive: -0.0581
GCAGUGCAUAACAUUGCCATT against Marcks | inactive: -0.825
CGCAAUUCAGGUACCAAAUTT against Ndufv1 | inactive: -1.44
GGACAAAUGAACAUGCUGATT against Edn2 | inactive: -0.22
GGAGAACAACCUUCUCAUATT against Cog7 | inactive: 0.447
GGAAGAUAAACCUAUCAUCTT against Phlda3 | inactive: 0.961
GGACUUAUGGUUUUUCCCATT against Atp1b3 | inactive: 1.19
GGCAAUGUGUCUUUGAUCATT against Lamc2 | inactive: -1.02
GGCAUUUAAAACUCAUUGUTT against G6pdx | inactive: -1.43
GGACCAUCACUUCCAGCUATT against Rab1b | inactive: -2.29
GCUGUUUCGGAUUUGGAGATT against 2610205H19Rik | inactive: -1.44
CCGUCGUACUUGUUCUCCUTT against Otog | inactive: -0.104
GGAUCACGAAUGAAUCCGATT against Dcir2 | inactive: -0.271
GGCUUGGCUUUCAUGUUACTT against B930052A04Rik | inactive: -0.138
GGAAAUUGAAGCAAAGAAGTT against A430065P19Rik | inactive: 0.0543
CGAUUACUACAUUACAUCATT against Efnb1 | inactive: 0.394
GCACUCAUACCUUAAGCUUTT against Ocilrp1 | inactive: -0.191
GCUAGUACUAUUACCUGCUTT against E130303B06Rik | inactive: 1.15
GGACAGAUGAUGAAGUUGUTT against Tra1 | inactive: -0.555
GGGCAGCACUGUGGUUAAUTT against Sh3md2 | inactive: -2.3

Retrieved one by one from above (two):
Sequence | z-score
CCGGCACUAUGAGAAGAAGTT against Lims2 | inactive: -1.88
CCACAUAUUUAUCUCCCUGTT against Mrpl33 | inactive: -0.129
